Experimental data as given in patent US20250143305A1, “PYRAZOLE COMPOUND AND PEST CONTROL AGENT CONTAINING THE SAME AS ACTIVE INGREDIENT” (MITSUI CHEMICALS CROP & LIFE SOLUTIONS, INC., priority 2022, published 2025).
Some results were stated once for a whole list of compounds, not compound by compound.

Assays:
Assay type in all cases: in vivo
[1] = tested on: Myzus persicae; assay: Insecticidal test against Myzus persicae, spray on radish leaves; conditions: 100 ppm; 20% acetone aqueous solution sprayed on radish leaves; 25 young larvae; 25° C.; after 5 days
Method: Insecticidal Test Against Myzus persicae
2.5 ml of a 20% acetone aqueous solution prepared to have a predetermined concentration of the test compound was sprayed on the leaves of radish (Raphanus sativus) in which the roots retained water and 25 young larvae were parasitized. After air drying, it was allowed to stand in a thermostatic chamber at 25° C., and the number of living insects and the number of dead insects were examined after 5 days.

[2] = tested on: Nilaparvata lugens; assay: Insecticidal test against Nilaparvata lugens, spray on rice seedling; conditions: 100 ppm; acetone solution sprayed on rice seedling; 10 young larvae; 25° C.; after 6 days
[3] = tested on: Sogatella furcifera; assay: Insecticidal test against Sogatella furcifera, spray on rice seedling; conditions: 100 ppm; acetone solution sprayed on rice seedling; 10 young larvae; 25° C.; after 6 days

Measured: mortality rate

CCn1nc(-c2cn3cnc(C(F)(F)F)cc3n2)c(S(=O)(=O)CC)c1N(C)C(=O)C(F)(F)F [compound 127]
≥ 50%: all assays above

CCSc1c(-c2cn3cnc(C(F)(F)F)cc3n2)nn(C)c1NC(=O)C(Cl)(Cl)Cl [compound 131]
≥ 50%: all assays above

CCSc1c(-c2cn3cnc(C(F)(F)F)cc3n2)nn(C)c1NC(=O)C1(C(F)(F)F)CC1 [compound 139]
≥ 50%: all assays above

CCSc1c(-c2nc3cc(C(F)(F)F)ncn3n2)nn(CC)c1NC(=O)C(F)(F)F [compound 171]
≥ 50%: all assays above

CCSc1c(-c2nc3cc(C(F)(F)F)ncn3n2)nn(CC)c1NC(=O)C(F)(F)C(F)(F)F [compound 175]
≥ 50%: all assays above

CCn1nc(-c2nc3cc(C(F)(F)F)ncn3n2)c(S(=O)(=O)CC)c1NC(=O)C(F)(F)C(F)(F)C(F)(F)F [compound 178]
≥ 50%: all assays above

CCS(=O)(=O)c1c(-c2nc3cc(C(F)(F)F)ncn3n2)nn(C)c1NC(=O)C(Cl)(Cl)Cl [compound 182]
≥ 50%: all assays above

CCn1nc(-c2nc3cc(C(F)(F)F)ncn3n2)c(S(=O)(=O)CC)c1NC(C)=O [compound 189]
≥ 50%: all assays above

CCSc1c(-c2cn3c(C)nc(C(F)(F)F)cc3n2)nn(C)c1N [compound 193]
≥ 50%: all assays above

CCSc1c(-c2cn3c(C)nc(C(F)(F)F)cc3n2)nn(C)c1NC(=O)C(F)(F)C(F)(F)F [compound 219]
≥ 50%: all assays above

CCSc1c(-c2cn3c(C)nc(C(F)(F)F)cc3n2)nn(C)c1NC(=O)C(F)(F)F [compound 220]
≥ 50%: all assays above

CCSc1c(-c2cn3c(C)nc(C(F)(F)F)cc3n2)nn(C)c1NC(=O)C(Cl)(Cl)Cl [compound 225]
≥ 50%: all assays above

CCSc1c(-c2cn3c(C)nc(C(F)(F)F)cc3n2)nn(C)c1NC(=O)C(F)(F)C(F)F [compound 226]
≥ 50%: all assays above

CCSc1c(-c2cn3cnc(C(F)(F)C(F)(F)F)cc3n2)nn(C)c1NC(=O)C(F)(F)F [compound 229]
≥ 50%: all assays above

CCS(=O)(=O)c1c(-c2cn3c(C)nc(C(F)(F)F)cc3n2)nn(C)c1NC(=O)C(Cl)(Cl)Cl [compound 230]
≥ 50%: all assays above

CC[S+]([O-])c1c(-c2cn3c(S(C)(=O)=O)nc(C(F)(F)F)cc3n2)nn(C)c1NC(=O)C(F)(F)F (stereo not drawn) [compound 234]
≥ 50%: all assays above

CCS(=O)(=O)c1c(-c2cn3cnc(C(F)F)cc3n2)nn(C)c1NC(=O)C(F)(F)C(F)(F)C(F)(F)F [compound 241]
≥ 50%: all assays above

CCSc1c(-c2cn3c(OC)nc(C(F)(F)F)cc3n2)nn(C)c1NC(=O)C(F)(F)F [compound 245]
≥ 50%: all assays above

CCS(=O)(=O)c1c(-c2cn3c(OC)nc(C(F)(F)F)cc3n2)nn(C)c1NC(=O)C(F)(F)F [compound 246]
≥ 50%: all assays above

CCSc1c(-c2cn3cnc(C(F)(F)F)cc3n2)nn(CC)c1NC(=O)C(F)(Cl)Cl [compound 247]
≥ 50%: all assays above

CCn1nc(-c2cn3cnc(C(F)(F)F)cc3n2)c(S(=O)(=O)CC)c1NC(=O)C(F)(Cl)Cl [compound 248]
≥ 50%: all assays above

CCS(=O)(=O)c1c(-c2cn3c(Cl)nc(C(F)(F)F)cc3n2)nn(C)c1NC(=O)C(F)(F)F [compound 249]
≥ 50%: all assays above

CCn1nc(-c2cn3cnc(C(F)(F)F)cc3n2)c(S(=O)(=O)CC)c1NC(=O)C(Cl)(Cl)Cl [compound 253]
≥ 50%: all assays above

CCS(=O)(=O)c1c(-c2cn3cnc(C(F)F)cc3n2)nn(C)c1NC(=O)C(Cl)(Cl)Cl [compound 254]
≥ 50%: all assays above

CCS(=O)(=O)c1c(-c2cn3cnc(C(F)(F)C(F)(F)F)cc3n2)nn(C)c1NC(=O)C(F)(F)C(F)(F)C(F)(F)F [compound 257]
≥ 50%: all assays above

CCSc1c(-c2cn3c(C4CC4)nc(C(F)(F)F)cc3n2)nn(C)c1NC(=O)C(F)(F)F [compound 260]
≥ 50%: all assays above

CCS(=O)(=O)c1c(-c2cn3c(C4CC4)nc(C(F)(F)F)cc3n2)nn(C)c1NC(=O)C(F)(F)F [compound 264]
≥ 50%: all assays above

CCS(=O)(=O)c1c(-c2cn3c(C4CC4)nc(C(F)(F)F)cc3n2)nn(C)c1NC(=O)C(F)(F)C(F)F [compound 265]
≥ 50%: all assays above

CCSc1c(-c2cn3cnc(C(F)(F)C(F)(F)F)cc3n2)nn(C)c1NC(=O)C(Cl)(Cl)Cl [compound 267]
≥ 50%: all assays above

CCOc1nc(C(F)(F)F)cc2nc(-c3nn(C)c(NC(=O)C(F)(F)F)c3S(=O)(=O)CC)cn12 [compound 269]
≥ 50%: all assays above

CCS(=O)(=O)c1c(-c2cn3c(C4CC4)nc(C(F)(F)F)cc3n2)nn(C)c1NC(=O)C(F)(F)C(F)(F)C(F)(F)F [compound 271]
≥ 50%: all assays above

CCS(=O)(=O)c1c(-c2cn3cnc(C(F)(F)C(F)(F)F)cc3n2)nn(C)c1NC(=O)C(Cl)(Cl)Cl [compound 273]
≥ 50%: all assays above

CCSc1c(-c2cn3cnc(C(F)(F)C(F)(F)F)cc3n2)nn(CC)c1NC(=O)C(F)(F)F [compound 274]
≥ 50%: all assays above

CCSc1c(-c2cn3c(O)nc(C(F)(F)F)cc3n2)nn(C)c1N(CC(F)(F)F)C(=O)C(F)(F)F [compound 277]
≥ 50%: all assays above

CCS(=O)(=O)c1c(-c2cn3cnc(C(F)(F)F)cc3n2)nn(C)c1NC(=O)c1cccc(C(F)(F)F)n1 [compound 283]
≥ 50%: all assays above

CCSc1c(-c2cn3cnc(C(F)(F)C(F)(F)F)cc3n2)nn(CC)c1NC(=O)C(F)(F)C(F)(F)C(F)(F)F [compound 291]
≥ 50%: all assays above

CCS(=O)(=O)c1c(-c2cn3cnc(C(F)(F)F)cc3n2)nn(C)c1NC(=O)c1ccccc1C [compound 300]
≥ 50%: all assays above

CCS(=O)(=O)c1c(-c2cn3cnc(C(F)(F)F)cc3n2)nn(C)c1NC(=O)c1cccc(C)c1 [compound 301]
≥ 50%: all assays above

CCS(=O)(=O)c1c(-c2cn3cnc(C(F)(F)F)cc3n2)nn(C)c1NC(=O)c1ccc(C)cc1 [compound 302]
≥ 50%: all assays above

CCS(=O)(=O)c1c(-c2cn3c(O)nc(C(F)(F)F)cc3n2)nn(C)c1N(CC(F)(F)F)C(=O)C(F)(F)F [compound 305]
≥ 50%: all assays above

CCSc1c(-c2cn3cnc(C(F)(F)C(F)(F)F)cc3n2)nn(CC)c1NC(=O)C(F)(F)C(F)F [compound 324]
≥ 50%: all assays above

CCSc1c(-c2cn3cnc(C(F)(F)C(F)(F)C(F)(F)F)cc3n2)nn(C)c1NC(=O)C(F)(F)F [compound 326]
≥ 50%: all assays above

CCn1nc(-c2cn3cnc(C(F)(F)C(F)(F)F)cc3n2)c(S(=O)(=O)CC)c1NC(=O)C(Cl)(Cl)Cl [compound 329]
≥ 50%: all assays above

CCS(=O)(=O)c1c(-c2cn3cnc(C(F)(F)C(F)(F)C(F)(F)F)cc3n2)nn(C)c1NC(=O)C(F)(F)F [compound 342]
≥ 50%: all assays above
